Data as given in PubChem BioAssay AID1259254 (NCATS, 2017)

Aim: 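Genome-wide screen for genes that prevent DNA re-replication in cancer cells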 (primary screen)
Cell system: human HCT116 colorectal cancer cells
Reagents: single siRNA against human genes
Time to read-out: 3 days
Read-out: 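Nuclei stained with Hoechst and imaged; cell-cycle phase assigned by DNA content; G2 share scaled per plate, non-targeting siRNA 0%, GMNN siRNA 100%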
Scale: G2 robust z-score and G2 cells, % of GMNN control: higher = more G2 cells, more excess DNA replication
Call rule: 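Active siRNAs have a G2 robust z of 5 or more median absolute deviations over the median, which in these data means about 38% or higher of GMNN control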
The whole screen tested about 59,000 reagents; this is an unselected part. Over the whole deposit, about 1,550 (2.6%) are marked active. 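G2 share is only a proxy for re-replication; each gene was hit by three separate siRNAs, and active genes were retested.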 Reagents against one gene are numbered here. Further read-outs or replicates are left out here. No sequences are given here. Not given: the amount of reagent.

SLFN5 #1 | G2 robust z-score = -0.0187; G2 cells, % of GMNN control = 2.84; activity call = inactive
SLFN5 #2 | G2 robust z-score = -0.732; G2 cells, % of GMNN control = -2.18; activity call = inactive
SLFN5 #3 | G2 robust z-score = 0.294; G2 cells, % of GMNN control = 5.04; activity call = inactive
DNAJC5 #1 | G2 robust z-score = 0.444; G2 cells, % of GMNN control = 6.09; activity call = inactive
DNAJC5 #2 | G2 robust z-score = -0.966; G2 cells, % of GMNN control = -3.83; activity call = inactive
DNAJC5 #3 | G2 robust z-score = -0.35; G2 cells, % of GMNN control = 0.506; activity call = inactive
LINC02363 #1 | G2 robust z-score = -0.978; G2 cells, % of GMNN control = -3.92; activity call = inactive
LINC02363 #2 | G2 robust z-score = -0.53; G2 cells, % of GMNN control = -0.764; activity call = inactive
LINC02363 #3 | G2 robust z-score = -0.388; G2 cells, % of GMNN control = 0.236; activity call = inactive
ZMAT3 #1 | G2 robust z-score = -0.211; G2 cells, % of GMNN control = 1.48; activity call = inactive
ZMAT3 #2 | G2 robust z-score = -0.521; G2 cells, % of GMNN control = -0.696; activity call = inactive
ZMAT3 #3 | G2 robust z-score = 0.232; G2 cells, % of GMNN control = 4.6; activity call = inactive

4 neighbouring entries already listed, for reference:
SLFN5 #1 | G2 robust z-score = -0.0187; G2 cells, % of GMNN control = 2.84; activity call = inactive
SLFN5 #2 | G2 robust z-score = -0.732; G2 cells, % of GMNN control = -2.18; activity call = inactive
SLFN5 #3 | G2 robust z-score = 0.294; G2 cells, % of GMNN control = 5.04; activity call = inactive
DNAJC5 #1 | G2 robust z-score = 0.444; G2 cells, % of GMNN control = 6.09; activity call = inactive

The results go on.
EFHD2 #1 | G2 robust z-score = -0.154; G2 cells, % of GMNN control = 1.88; activity call = inactive
EFHD2 #2 | G2 robust z-score = 0.0439; G2 cells, % of GMNN control = 3.28; activity call = inactive
EFHD2 #3 | G2 robust z-score = -0.327; G2 cells, % of GMNN control = 0.666; activity call = inactive
NCR2 #1 | G2 robust z-score = 0.675; G2 cells, % of GMNN control = 7.72; activity call = inactive
NCR2 #2 | G2 robust z-score = 0.936; G2 cells, % of GMNN control = 9.55; activity call = inactive
NCR2 #3 | G2 robust z-score = -0.165; G2 cells, % of GMNN control = 1.81; activity call = inactive
VCL #1 | G2 robust z-score = 0.121; G2 cells, % of GMNN control = 3.82; activity call = inactive
VCL #2 | G2 robust z-score = -0.57; G2 cells, % of GMNN control = -1.04; activity call = inactive
VCL #3 | G2 robust z-score = -0.797; G2 cells, % of GMNN control = -2.64; activity call = inactive
SASH1 #1 | G2 robust z-score = -0.15; G2 cells, % of GMNN control = 1.91; activity call = inactive
SASH1 #2 | G2 robust z-score = 0.534; G2 cells, % of GMNN control = 6.72; activity call = inactive
SASH1 #3 | G2 robust z-score = 1.39; G2 cells, % of GMNN control = 12.8; activity call = inactive
